{"sequences": {"note": "By UniProt entry, the sequences of proteins in these tests, tags left out. Where a name states a change or a piece, a line headed by the entry shows the natural chain unless it says otherwise.", "UniProt Q9UNA4": "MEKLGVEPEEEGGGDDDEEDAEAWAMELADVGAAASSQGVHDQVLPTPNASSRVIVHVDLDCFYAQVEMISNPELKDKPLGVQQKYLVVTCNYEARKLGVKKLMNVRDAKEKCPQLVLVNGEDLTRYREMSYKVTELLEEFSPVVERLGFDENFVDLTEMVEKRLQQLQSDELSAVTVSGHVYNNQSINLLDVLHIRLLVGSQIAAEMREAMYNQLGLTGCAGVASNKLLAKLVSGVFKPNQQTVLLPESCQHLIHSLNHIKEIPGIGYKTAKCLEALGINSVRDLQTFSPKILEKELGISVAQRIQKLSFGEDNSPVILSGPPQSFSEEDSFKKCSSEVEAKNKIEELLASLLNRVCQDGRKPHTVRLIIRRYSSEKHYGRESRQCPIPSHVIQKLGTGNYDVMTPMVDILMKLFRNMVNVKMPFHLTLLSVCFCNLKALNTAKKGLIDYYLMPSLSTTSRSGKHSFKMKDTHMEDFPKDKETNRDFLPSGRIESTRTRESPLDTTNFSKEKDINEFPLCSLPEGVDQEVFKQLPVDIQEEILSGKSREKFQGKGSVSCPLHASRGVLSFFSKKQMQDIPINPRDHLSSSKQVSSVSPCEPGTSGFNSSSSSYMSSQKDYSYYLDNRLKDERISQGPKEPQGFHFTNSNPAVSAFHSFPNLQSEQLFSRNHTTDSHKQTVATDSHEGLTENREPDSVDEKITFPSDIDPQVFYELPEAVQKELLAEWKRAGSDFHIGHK"}, "source": "PubChem BioAssay AID588590", "about": "(National Center for Advancing Translational Sciences (NCATS), 2011)", "note": "Screen size: about 390,000 compounds; about 4,000 (1%) were called active. The shares of active, inactive and inconclusive entries below differ from those in the screen. Calls come from the whole dose curve; as a rule, active = well fitted inhibition curve with a large enough effect; inconclusive = small, poorly fitted or top-dose-only effect, or another doubt; inactive = no such curve, though single readings can be large or run the other way. A potency beside an inconclusive call is a rough fit, not a confirmed value."}
{"molecular_target": "DNA polymerase iota (Homo sapiens) (UniProt Q9UNA4)", "experiment": "qHTS for Inhibitors of Polymerase Iota; note: potency is the fitted concentration of half-maximal effect", "details": "Pol iota fluorescent replication assay, 10 min; series mostly up to 115 µM; activity, negative = inhibition: at the top concentration", "method_in_brief": "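Fluorescent replication assay read twice, at 0 min and 10 min after adding 50 nM (final) substrate. Enzyme (10 nM) and compounds were first incubated 15 min at room temperature; enzyme-free buffer wells were negative controls.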"}
{"molecule": "O=C(CCc1nnc(CCc2ccccc2)o1)NC(c1cccnc1)C(F)(F)F", "note": "(stereo not given)", "Potency": "inconclusive: 79.4 µM [inhibitor, partial curve, poor fit]"}
{"molecule": "O=C(CSc1oc(-c2cccs2)nc1S(=O)(=O)c1ccccc1)Nc1ccc(F)cc1", "Potency": "inconclusive: 79.4 µM [inhibitor, single point]"}
{"molecule": "Cc1nnc2c(NC3CCCCC3)nc3ccccc3n12", "Potency": "inconclusive: 0.316 µM [inhibitor, full curve, poor fit]"}
{"molecule": "Cc1ccc(NC(=O)CN(C)C(=O)c2ccc(OCc3cn4ccccc4n3)cc2)cc1", "Potency": "inconclusive: 56.2 µM [inhibitor, partial curve, poor fit]"}
{"molecule": "COc1cc(-c2[nH]nc3c2C(c2ccoc2)C(C#N)=C(N)O3)cc(OC)c1OC", "note": "(stereo not given)", "Potency": "inconclusive: 31.6 µM [inhibitor, partial curve, poor fit]"}
{"molecule": "CCOc1ccccc1/C=C/c1onc(C)c1S(=O)(=O)N1CCC(C(=O)N2CCCCC2)CC1", "activity, negative = inhibition": "inactive: 21.2%"}
{"molecule": "O=C(Cc1ccccc1)Nc1cccc([N+](=O)[O-])c1", "activity, negative = inhibition": "inactive: -3.78%"}
{"molecule": "O=S(=O)(NCc1ccco1)c1ccc2c(c1)Cc1ccccc1-2", "Potency": "inconclusive: 31.6 µM [inhibitor, full curve, poor fit]"}
{"molecule": "Cc1cc(C)nc(SCC(=O)NCc2ccco2)n1", "Potency": "inconclusive: 20 µM [inhibitor, full curve, poor fit]"}
{"molecule": "CCc1ccccc1NS(=O)(=O)c1ccc2[nH]cc(C(=O)NC3CCCC3)c(=O)c2c1", "Potency": "inconclusive: 79.4 µM [inhibitor, partial curve]"}
{"molecule": "Cc1ccccc1-c1noc(CSc2nc(-c3ccc(F)cc3)cc(=O)[nH]2)n1", "Potency": "inconclusive: 56.2 µM [inhibitor, partial curve]"}
{"molecule": "O=C(OCC(=O)c1c[nH]c2ccccc12)c1cccc(S(=O)(=O)N2CCCCCC2)c1", "Potency": "inconclusive: 63.1 µM [inhibitor, partial curve, poor fit]"}
{"molecule": "C=CCOc1cccc(CNCc2cccnc2)c1", "Potency": "inconclusive: 39.8 µM [inhibitor, single point]"}
{"molecule": "CCC(CO)Oc1cc(NCc2cccc(F)c2)c2ncn(C(C)C)c2c1", "note": "(stereo not given)", "Potency": "inconclusive: 15.8 µM [inhibitor, partial curve, poor fit]"}
{"molecule": "O=[N+]([O-])c1cc2c(cc1/C=N/n1c(-c3ccccn3)n[nH]c1=S)OCO2", "Potency": "inconclusive: 56.2 µM [inhibitor, partial curve, poor fit]"}
{"molecule": "COC(=O)C1=C(C(=O)OC)C(c2cc(Br)ccc2O)c2sc(=O)[nH]c2S1", "note": "(stereo not given)", "Potency": "inconclusive: 28.2 µM [inhibitor, partial curve, poor fit]"}
{"molecule": "O=C(C1CCCCC1)N1CCN(c2ncccn2)CC1", "Potency": "inconclusive: 11.2 µM [inhibitor, partial curve, poor fit]"}
{"molecule": "COc1cccc(CCC(=O)Nc2cccc(S(=O)(=O)N3CCCC3)c2)c1OC", "Potency": "inconclusive: 2.82 µM [inhibitor, full curve, poor fit]"}
{"molecule": "CC(C)(C)n1ncc2c(=O)n(Cc3ccccc3)cnc21", "activity, negative = inhibition": "inactive: 10%"}
{"molecule": "COc1ccccc1/C=C1\\C=Cc2ccccc21", "Potency": "inconclusive: 39.8 µM [inhibitor, single point]"}
{"molecule": "CCCN1C(=O)c2cc(C(=O)O)ccc2C1O", "note": "(stereo not given)", "Potency": "inconclusive: 0.794 µM [inhibitor, partial curve, poor fit]"}
{"molecule": "O=C(NC1CCCC1)c1ccc(CSc2nc3cccnc3n2Cc2ccccc2F)cc1", "activity, negative = inhibition": "inactive: -4.23%"}
{"molecule": "C/C(=N/NC(=O)c1cc(O)c(O)c(O)c1)c1ccc([N+](=O)[O-])cc1", "Potency": "inconclusive: 15.8 µM [inhibitor, partial curve, poor fit]"}
{"molecule": "CC1CCCN(Cc2c(O)ccc3c(=O)c(-c4ccccc4Cl)c(C(F)(F)F)oc23)C1", "note": "(stereo not given)", "Potency": "inconclusive: 100 µM [inhibitor, single point]"}
{"molecule": "CC(C)Oc1ccc(Br)cc1C(=O)N/N=C/c1c[nH]c2ccccc12", "Potency": "inconclusive: 3.55 µM [inhibitor, full curve]"}
{"molecule": "C=C1C(=O)OC2C=C(CO)CCC=C(CO)CC(OC(=O)C(C)C)C12", "note": "(stereo not given)", "Potency": "inconclusive: 17.8 µM [inhibitor, full curve]"}
{"molecule": "Cc1ccc2c(cnn2C(=O)CCC(=O)NCc2cccc(Cl)c2)c1", "Potency": "inconclusive: 15.8 µM [inhibitor, partial curve, poor fit]"}
{"molecule": "O=C(/C=C/c1cccs1)Nc1scc(-c2ccccc2)c1C(=O)O", "Potency": "active: 2.51 µM"}
{"molecule": "O=C(CCN1C(=O)/C(=C/c2ccc(Cl)cc2)SC1=S)Nc1cccc(C(=O)O)c1", "activity, negative = inhibition": "inactive: 49.8%"}
{"molecule": "CC(C)N(C(=O)Cn1cc(S(=O)(=O)CC(=O)Nc2ccccc2)c2ccccc21)C(C)C", "activity, negative = inhibition": "inactive: -12.7%"}
{"molecule": "Cc1ccc2c(c1)N(CC(=O)Nc1ncccc1C)C(=O)C(C(C)C)O2", "note": "(stereo not given)", "Potency": "inconclusive: 100 µM [inhibitor, single point]"}
{"molecule": "BrC(=C\\c1ccccc1)/C=N/n1cnnc1", "Potency": "inconclusive: 39.8 µM [inhibitor, single point]"}
{"molecule": "CCn1cc(CNC(=O)c2ccc(OC3CCN(Cc4ccccn4)CC3)cc2)cn1", "Potency": "inconclusive: 79.4 µM [inhibitor, partial curve, poor fit]"}
{"molecule": "Cc1cc(C)nc(SCc2ccc(C(=O)NNC(=O)Nc3cccc(Cl)c3)cc2)n1", "Potency": "inconclusive: 89.1 µM [inhibitor, partial curve]"}
{"molecule": "Cc1ccc(NC(=O)Cn2nnc(C(=O)NCc3cccs3)c2N)cc1F", "Potency": "inconclusive: 79.4 µM [inhibitor, partial curve]"}
{"molecule": "O=C(N/N=C/C(Br)=C\\c1ccccc1)c1n[nH]c2c1CCC2", "Potency": "active: 25.1 µM"}
{"molecule": "Cc1ccc(C(=O)Nc2cccc(C(F)(F)F)c2)cc1Nc1cnccn1", "Potency": "inconclusive: 20 µM [inhibitor, single point]"}
{"molecule": "COc1cc(/C=N/NC(=O)c2ccc3nc[nH]c3c2)ccc1O", "Potency": "inconclusive: 14.1 µM [inhibitor, full curve, poor fit]"}
{"molecule": "COc1ccc(CNC(=O)c2ccc3c(c2)N(C)CCS3)cc1", "Potency": "inconclusive: 89.1 µM [inhibitor, partial curve, poor fit]"}
{"molecule": "Cc1cccc(/C=N/NC(=O)c2ccc(NC(=O)c3cccc(Cl)c3)cc2)n1", "Potency": "inconclusive: 25.1 µM [inhibitor, partial curve]"}
